These are yes or no findings as the source states them, for the method shown.
Target: T1, pro-neutrophil elastase, inactive zymogen (mouse) (mouse (endogenous in C57BL/6J lung tissue)) (UniProt Q3UP87)
T1 sequence: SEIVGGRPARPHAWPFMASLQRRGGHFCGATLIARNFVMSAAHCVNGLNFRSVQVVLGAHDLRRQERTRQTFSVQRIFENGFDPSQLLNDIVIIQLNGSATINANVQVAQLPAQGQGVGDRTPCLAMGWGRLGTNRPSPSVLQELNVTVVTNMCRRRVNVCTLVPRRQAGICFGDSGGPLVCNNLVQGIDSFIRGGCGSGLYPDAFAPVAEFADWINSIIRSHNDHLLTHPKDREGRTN
Test: covalent serpin-protease complex detected by SDS-PAGE and Western blot; whole lung tissue lysates of vehicle- or ICatC-treated mice, excess of AAT; 12% SDS-PAGE, blot with an AAT antibody together with a polyclonal anti-mouse PR3 antibody; irreversible complex expected as a 77 kDa band

Sequences of proteins named here, by UniProt entry; tags and fusion partners are left off. Residues count along the entry.
UniProt P01009, residues 25-418: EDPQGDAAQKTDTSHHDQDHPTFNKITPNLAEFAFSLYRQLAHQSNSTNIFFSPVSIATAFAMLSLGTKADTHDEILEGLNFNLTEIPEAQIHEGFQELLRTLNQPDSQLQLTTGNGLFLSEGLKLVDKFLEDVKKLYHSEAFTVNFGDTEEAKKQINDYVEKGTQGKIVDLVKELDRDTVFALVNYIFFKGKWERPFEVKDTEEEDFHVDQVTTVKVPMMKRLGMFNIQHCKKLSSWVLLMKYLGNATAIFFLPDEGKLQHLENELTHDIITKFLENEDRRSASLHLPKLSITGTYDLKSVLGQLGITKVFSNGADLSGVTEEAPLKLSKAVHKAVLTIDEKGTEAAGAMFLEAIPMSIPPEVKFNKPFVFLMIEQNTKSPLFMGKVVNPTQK

alpha-1-antitrypsin (from UniProt P01009 25-418)
binding: no binding
